Measurements as given in publication PMC6867699.

The chains behind the UniProt entries cited, without tags or fusion partners.
UniProt P40763: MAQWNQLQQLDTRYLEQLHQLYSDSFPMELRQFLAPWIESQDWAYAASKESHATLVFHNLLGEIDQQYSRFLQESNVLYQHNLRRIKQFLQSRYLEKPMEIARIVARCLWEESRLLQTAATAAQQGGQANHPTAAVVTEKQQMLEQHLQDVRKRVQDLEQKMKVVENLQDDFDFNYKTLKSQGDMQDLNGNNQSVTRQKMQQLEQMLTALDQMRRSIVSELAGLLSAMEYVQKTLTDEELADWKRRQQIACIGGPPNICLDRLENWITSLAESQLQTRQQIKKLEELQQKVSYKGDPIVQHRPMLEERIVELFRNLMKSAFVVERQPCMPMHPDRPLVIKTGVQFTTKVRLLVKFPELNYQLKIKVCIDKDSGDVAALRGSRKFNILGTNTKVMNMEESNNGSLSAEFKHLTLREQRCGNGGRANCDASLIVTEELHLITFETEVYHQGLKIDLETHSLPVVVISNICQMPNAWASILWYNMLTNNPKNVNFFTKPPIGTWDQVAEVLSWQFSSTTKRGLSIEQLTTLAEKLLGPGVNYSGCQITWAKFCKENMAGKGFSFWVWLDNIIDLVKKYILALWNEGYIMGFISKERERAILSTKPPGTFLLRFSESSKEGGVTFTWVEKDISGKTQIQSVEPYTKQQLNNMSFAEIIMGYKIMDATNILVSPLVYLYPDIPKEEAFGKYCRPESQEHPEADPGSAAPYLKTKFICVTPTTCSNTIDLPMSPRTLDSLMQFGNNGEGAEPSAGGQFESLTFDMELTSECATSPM

Molecular target: Human epidermal growth factor receptor 2 (HER2) (human (endogenous in SKBR3)) (UniProt P04626)
Assay: affinity purification with mass spectrometry; RIME: anti-HER2 (sc-284) immunoprecipitation from nuclear (Nuclei Pure Prep kit) or chromatin (Subcellular Extraction kit) fractions of SILAC-labelled SKBR3 cells treated with vehicle or EGF for 3 hours, labels mixed; IgG control; on-bead trypsin digestion, LC-MS/MS

With “signal transducer and activator of transcription 3 (STAT3) (from UniProt P40763 1-770)” as the substance, how does the binding read?
The binding was “binds”.

No constants are given. Whether binding was seen depends on the method and setting. Binding seen in cells or lysates may run through a third protein. Here binding means that the protein was enriched with, or labelled near, the bait; the list need not be complete.
